# Patent US20160039903A1 (Stanford University, published 2016)
# Amino acid sequences for entries named in this document (tags omitted). A change or cut given only in a name is not applied to a line headed by its entry.
# UniProt Q9NZQ7: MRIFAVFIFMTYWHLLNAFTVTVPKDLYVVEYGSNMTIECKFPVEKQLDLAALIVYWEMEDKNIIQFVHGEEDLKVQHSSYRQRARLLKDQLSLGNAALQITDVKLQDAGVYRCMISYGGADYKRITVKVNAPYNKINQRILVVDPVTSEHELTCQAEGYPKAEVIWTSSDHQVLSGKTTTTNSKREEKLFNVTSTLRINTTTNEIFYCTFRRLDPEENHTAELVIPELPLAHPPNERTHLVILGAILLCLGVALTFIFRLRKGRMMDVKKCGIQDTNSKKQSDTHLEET
# Results are given in words; binding and its absence hold for the method and conditions named. Some entries that bind do so weakly or less than the wild type.
# Target: human PD-L1 displayed on yeast (residues 19-132) (human; S. cerevisiae) (UniProt Q9NZQ7)
# Test: competition flow cytometry on yeast displaying human PD-L1; competitor probe: labeled native PD-1 streptavidin tetramer
row,binding,Binder
1,binds,"G1 4-1 (designed binder, also called Generation 1, clone 4-1) PD-1 variant IgV domain: DSPDRPWNPPTFSPALLVVTEGDNATFTCSFSNTSESFRLVWHRESPGYETDTLASFPEDRSTPLPDCRFRVTQLPNGRDFHMSVVRARRNDSGTYVCGAIAFHPVIQIKESLRAELRVTER"
2,binds,"G1 4-4 (designed binder, also called Generation 1, clone 4-4) PD-1 variant IgV domain: DSPDRPWNPPTFSPALLVVTEGDNATFTCSFSNTSESFRLVWHRESPNNHAYTLALFPEDRSLPFPDCRFRVTQLPNGRDFHMSVVRARRNDSGTYICGAITFDPRIQIKESLRAELRVTER"
